Measurements reported in PubChem BioAssay AID686943 (Drosophila RNAi Screening Center, 2013).

- Screen: 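Fly genes whose loss alters ERK activation after insulin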 (primary screen)
- Cells: Drosophila S2R+ haemocyte-like cells expressing YFP-tagged ERK (Rolled)
- Reagent: long dsRNA against Drosophila genes
- Challenge: insulin stimulation versus unstimulated cells; dose and duration not given
- Detection: 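Antibody staining for doubly phosphorylated ERK divided by ERK-YFP signal, as plate z-scores, in insulin-treated and untreated cells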
- Scale: replicate 1, z-score of dpERK with insulin: higher = more active ERK per ERK-YFP after insulin
The screen tested about 23,000 reagents; this is a random part of those that have a named target and a result. 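Extra replicates exist only for a retested subset of genes; insulin dose and duration not given; both raised and lowered dpERK matter.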 Reagents against one gene are numbered here. Further read-outs or replicates are left out here. No sequences are given here. The record does not give: the amount of reagent, the time to read-out.

The first 4 entries, ahead of the listing:
CG18598 | replicate 1, z-score of dpERK with insulin: 0.16
Pez | replicate 1, z-score of dpERK with insulin: 0.35
Rhau (RHAU helicase) | replicate 1, z-score of dpERK with insulin: 1.29
Syx16 (Syntaxin 16) | replicate 1, z-score of dpERK with insulin: 0.48

Main list, from the start:
CG18598 | replicate 1, z-score of dpERK with insulin: 0.16
Pez | replicate 1, z-score of dpERK with insulin: 0.35
Rhau (RHAU helicase) | replicate 1, z-score of dpERK with insulin: 1.29
Syx16 (Syntaxin 16) | replicate 1, z-score of dpERK with insulin: 0.48
Dlip3 (Dorsal interacting protein 3) | replicate 1, z-score of dpERK with insulin: -1.28
AdoR (Adenosine receptor) | replicate 1, z-score of dpERK with insulin: -1.33
CG43342 | replicate 1, z-score of dpERK with insulin: 1.8
CG14634 | replicate 1, z-score of dpERK with insulin: -1.14
CG10660 | replicate 1, z-score of dpERK with insulin: 0.82
CLS (Cardiolipin synthase) | replicate 1, z-score of dpERK with insulin: 0.14
CG31122 #1 | replicate 1, z-score of dpERK with insulin: -4.83
CG31122 #2 | replicate 1, z-score of dpERK with insulin: 0.28
CG5828 | replicate 1, z-score of dpERK with insulin: 0.75
Usp15-31 (Ubiquitin specific protease 15/31) #1 | replicate 1, z-score of dpERK with insulin: 0.9
Usp15-31 (Ubiquitin specific protease 15/31) #2 | replicate 1, z-score of dpERK with insulin: -3.3
CG15358 | replicate 1, z-score of dpERK with insulin: 0.79
scrt (scratch) | replicate 1, z-score of dpERK with insulin: -4.33
CG33631 | replicate 1, z-score of dpERK with insulin: 0.83
Egfrap (EGFR adaptor protein) #1 | replicate 1, z-score of dpERK with insulin: 0.06
Egfrap (EGFR adaptor protein) #2 | replicate 1, z-score of dpERK with insulin: 1.04
trk (trunk) | replicate 1, z-score of dpERK with insulin: 0.04
ath (athos) | replicate 1, z-score of dpERK with insulin: 0.02
CG13679 #1 | replicate 1, z-score of dpERK with insulin: 0.92
CG13679 #2 | replicate 1, z-score of dpERK with insulin: -0.14
CR18166 (pseudo) #1 | replicate 1, z-score of dpERK with insulin: 0.46
CR18166 (pseudo) #2 | replicate 1, z-score of dpERK with insulin: -0.04
SMC6 (Structural maintenance of chromosomes 6) | replicate 1, z-score of dpERK with insulin: 1.43
dpr2 (defective proboscis extension response 2) #1 | replicate 1, z-score of dpERK with insulin: -0.06
dpr2 (defective proboscis extension response 2) #2 | replicate 1, z-score of dpERK with insulin: 0.54
CG34347 #1 | replicate 1, z-score of dpERK with insulin: -0.11
CG34347 #2 | replicate 1, z-score of dpERK with insulin: 1.27
CG34347 #3 | replicate 1, z-score of dpERK with insulin: -0.59
CG34347 #4 | replicate 1, z-score of dpERK with insulin: -1.35
